Laboratory results: PubChem BioAssay AID1259254 (NCATS, 2017)
Assay: 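Genome-wide screen for genes that prevent DNA re-replication in cancer cells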 (primary screen). Cells: human HCT116 colorectal cancer cells. Reagents: single siRNA against human genes. Time to read-out: 3 days. Read-out: 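Imaged Hoechst DNA stain sorts each cell into a cycle phase by DNA amount; per plate, G2 fraction set to 0% for non-targeting and 100% for GMNN siRNA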. Scale: G2 robust z-score and G2 cells, % of GMNN control: higher = more G2 cells, more excess DNA replication. Rule for the call: 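An siRNA counts as active if its G2 robust z-score lies at least 5 MADs above the screen median; here such calls match roughly 38% of GMNN control or more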.
The deposit covers about 59,000 reagents; shown is a part drawn at random. About 1,550 of them (2.6%) were called active. 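G2 share is only a proxy for re-replication; each gene was hit by three separate siRNAs, and active genes were retested.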 Reagents against one gene are numbered here. Not all columns of the deposit are shown. The record does not give: the amount of reagent.

no.	Gene	reagent	G2 robust z-score	G2 cells, % of GMNN control	Call
1	CCDC107 (coiled-coil domain containing 107)	1	0.612	7.27	inactive
2	CCDC107 (coiled-coil domain containing 107)	2	-0.494	-0.505	inactive
3	CCDC107 (coiled-coil domain containing 107)	3	-0.452	-0.212	inactive
4	B3GLCT (beta 3-glucosyltransferase)	1	-0.221	1.41	inactive
5	B3GLCT (beta 3-glucosyltransferase)	2	-0.546	-0.871	inactive
6	B3GLCT (beta 3-glucosyltransferase)	3	-0.281	0.99	inactive
7	DERL1 (derlin 1)	1	-0.438	-0.113	inactive
8	DERL1 (derlin 1)	2	1.31	12.2	inactive
9	DERL1 (derlin 1)	3	-1.29	-6.07	inactive
10	HSPA14 (heat shock protein family A (Hsp70) member 14)	1	-0.687	-1.87	inactive
11	HSPA14 (heat shock protein family A (Hsp70) member 14)	2	1.15	11.1	inactive
12	HSPA14 (heat shock protein family A (Hsp70) member 14)	3	-0.913	-3.46	inactive
13	CKB (creatine kinase B)	1	-1.58	-8.11	inactive
14	CKB (creatine kinase B)	2	0.73	8.1	inactive
15	CKB (creatine kinase B)	3	-0.0728	2.46	inactive
16	CYP1A2 (cytochrome P450 family 1 subfamily A member 2)	1	-0.679	-1.81	inactive
17	CYP1A2 (cytochrome P450 family 1 subfamily A member 2)	2	-1.28	-6.04	inactive
18	CYP1A2 (cytochrome P450 family 1 subfamily A member 2)	3	-1.43	-7.1	inactive
19	ATP1B1 (ATPase Na+/K+ transporting subunit beta 1)	1	-0.338	0.591	inactive
20	ATP1B1 (ATPase Na+/K+ transporting subunit beta 1)	2	-1.54	-7.86	inactive
21	ATP1B1 (ATPase Na+/K+ transporting subunit beta 1)	3	0.11	3.74	inactive
22	COLEC12 (collectin subfamily member 12)	1	2.85	23	inactive
23	COLEC12 (collectin subfamily member 12)	2	2.98	23.9	inactive
24	COLEC12 (collectin subfamily member 12)	3	0.0441	3.28	inactive

Looked up above.
CKB (creatine kinase B) #1, G2 cells, % of GMNN control: -8.11
Entry for CCDC107 (coiled-coil domain containing 107) #1 in “Call”: inactive
COLEC12 (collectin subfamily member 12) #2, G2 cells, % of GMNN control: 23.9
Under “Call”, B3GLCT (beta 3-glucosyltransferase) #2 shows inactive
Value for COLEC12 (collectin subfamily member 12) #1 under “G2 cells, % of GMNN control”: 23
Value for DERL1 (derlin 1) #1 under “Call”: inactive

Additional reagents follow:
no.	Gene	reagent	G2 robust z-score	G2 cells, % of GMNN control	Call
25	PPFIA3 (PPFI scaffold protein A3)	1	-1.01	-4.17	inactive
26	PPFIA3 (PPFI scaffold protein A3)	2	-0.747	-2.29	inactive
27	PPFIA3 (PPFI scaffold protein A3)	3	1.3	12.1	inactive
28	MLLT1 (MLLT1 super elongation complex subunit)	1	0.153	4.05	inactive
29	MLLT1 (MLLT1 super elongation complex subunit)	2	-0.0704	2.47	inactive
30	MLLT1 (MLLT1 super elongation complex subunit)	3	0.453	6.15	inactive
31	METTL9 (methyltransferase 9, His-X-His N1(pi)-histidine)	1	0.385	5.68	inactive
32	METTL9 (methyltransferase 9, His-X-His N1(pi)-histidine)	2	0.829	8.8	inactive
33	METTL9 (methyltransferase 9, His-X-His N1(pi)-histidine)	3	0.0553	3.36	inactive
34	MOSPD2 (motile sperm domain containing 2)	1	-0.76	-2.38	inactive
35	MOSPD2 (motile sperm domain containing 2)	2	-0.779	-2.51	inactive
36	MOSPD2 (motile sperm domain containing 2)	3	0.891	9.24	inactive
37	MYD88 (MYD88 innate immune signal transduction adaptor)	1	-0.492	-0.494	inactive
38	MYD88 (MYD88 innate immune signal transduction adaptor)	2	-0.537	-0.813	inactive
39	MYD88 (MYD88 innate immune signal transduction adaptor)	3	1.55	13.9	inactive
40	PTPN2P1 (PTPN2 pseudogene 1)	1	-0.547	-0.882	inactive
41	PTPN2P1 (PTPN2 pseudogene 1)	2	0.629	7.39	inactive
42	PTPN2P1 (PTPN2 pseudogene 1)	3	-0.7	-1.96	inactive
43	DCTPP1 (dCTP pyrophosphatase 1)	1	-0.81	-2.73	inactive
44	DCTPP1 (dCTP pyrophosphatase 1)	2	-0.965	-3.82	inactive
45	DCTPP1 (dCTP pyrophosphatase 1)	3	0.181	4.24	inactive
46	MLKL (mixed lineage kinase domain like pseudokinase)	1	0.114	3.77	inactive
47	MLKL (mixed lineage kinase domain like pseudokinase)	2	0.819	8.73	inactive
48	MLKL (mixed lineage kinase domain like pseudokinase)	3	-1.45	-7.23	inactive
